Values of other authors in patent US20050113271A1, “Automatic dishwashing detergent with improved glass anti-corrosion properties II” (priority 2002, published 2005).
Some of these results come from one statement about several compounds together.

Settings: 20° C. water temperature

With Zinc acetylacetonate as the substance, how does the “solubility in water (insoluble / soluble organic zinc salts)” value read?
Its value is “above 100 mg/l”.
